Common to all, as to assay: pull-down; mitochondria of His-tagged strains solubilized in 1% digitonin, 500 μg lysate incubated with Ni2+-agarose beads, washed, eluted, immunoblot; untagged WT strain as control
On the technique in general: Immunoblotting shows a protein as a band on a membrane.

Sequences of proteins named here, by UniProt entry; tags and fusion partners are left off. A change or cut given only in a name is not applied to a line headed by its entry.
UniProt Q04689: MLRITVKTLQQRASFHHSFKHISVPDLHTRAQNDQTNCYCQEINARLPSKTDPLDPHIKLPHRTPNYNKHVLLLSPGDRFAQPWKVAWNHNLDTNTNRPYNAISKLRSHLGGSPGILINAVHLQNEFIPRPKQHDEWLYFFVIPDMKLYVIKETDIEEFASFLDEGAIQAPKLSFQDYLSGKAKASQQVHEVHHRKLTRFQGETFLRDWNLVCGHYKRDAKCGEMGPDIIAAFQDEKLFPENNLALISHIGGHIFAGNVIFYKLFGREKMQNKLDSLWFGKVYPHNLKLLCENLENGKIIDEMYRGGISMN

Assay [1] has as its target T1, His-tagged Tim23 (S. cerevisiae) (UniProt P32897).
T1 sequence: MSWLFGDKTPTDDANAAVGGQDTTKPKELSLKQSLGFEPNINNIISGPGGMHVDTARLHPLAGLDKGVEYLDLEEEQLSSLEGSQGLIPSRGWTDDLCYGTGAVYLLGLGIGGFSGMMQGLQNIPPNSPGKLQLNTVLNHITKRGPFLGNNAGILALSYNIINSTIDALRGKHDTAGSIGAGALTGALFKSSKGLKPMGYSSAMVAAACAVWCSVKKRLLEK

The target in assay [2] is T2, His-tagged Tim17 (S. cerevisiae) (UniProt P39515).
T2 sequence: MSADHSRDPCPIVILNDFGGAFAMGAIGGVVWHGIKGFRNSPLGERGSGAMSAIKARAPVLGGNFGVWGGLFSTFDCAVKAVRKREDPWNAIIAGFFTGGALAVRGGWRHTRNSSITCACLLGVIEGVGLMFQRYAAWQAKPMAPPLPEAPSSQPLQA

The target in assay [3] is T3, Erv1 with a C-terminal histidine tag (Erv1-His) (S. cerevisiae) (UniProt P27882).
T3 sequence: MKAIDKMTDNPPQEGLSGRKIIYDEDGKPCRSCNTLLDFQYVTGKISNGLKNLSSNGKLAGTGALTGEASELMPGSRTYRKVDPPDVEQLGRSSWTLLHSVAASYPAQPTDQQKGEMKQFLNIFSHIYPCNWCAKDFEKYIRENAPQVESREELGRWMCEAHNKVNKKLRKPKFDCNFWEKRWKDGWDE

These are yes or no findings as the source states them, for the method shown. In cells and extracts the contact can be indirect. Binding calls can cover weak binding; strength is not graded here. Sequences can lack the tags named with a protein.

For the substance “Altered inheritance of mitochondria 32 (Aim32) (from UniProt Q04689)”, the binding result in assay [1] and in assay [2] was “binds” in each case.
Take cytochrome c: in assay [3], the binding result is recorded as “binds”.

For the origin of these results see paper PMC8482512.
